Measured data: PubChem BioAssay AID504784 (Drosophila RNAi Screening Center, 2011)
The deposit covers about 17,000 reagents; this is an unselected part of those that have a named target and a result. 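Each column is one replicate's B-score; the combined score over replicates was not deposited, so single values may mislead.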 Names joined by + are all predicted targets of the reagent.

- Test: 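Genome-wide knock-down for genes giving too much or too little stored lipid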 (primary screen)
- Cell system: Drosophila Kc167 embryonic cells
- Reagent: long dsRNA against Drosophila genes, about 250 ng dsRNA per well
- Timing: 4 days
- Challenge: cells fed 400 µM oleic acid bound to BSA
- Read-out: 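Cells imaged and segmented; ratio of lipid droplet area to nuclear area, log-transformed, then normalised as a B-score over the screen; higher means more stored lipid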
- Reading the numbers: droplet/nuclear area B-score: higher = more stored lipid (overstorage)

| gene | amplicon | droplet/nuclear area B-score, replicate 1 | droplet/nuclear area B-score, replicate 2 | droplet/nuclear area B-score, replicate 3 |
| --- | --- | --- | --- | --- |
| CG34324 | DRSC19502 | -1.75 | 1.74 | -0.6 |
| CG34324 | DRSC23241 | -0.211 | -0.0473 | – |
| EMRE | DRSC06686 | -2.07 | 1.14 | – |
| CG9673 | DRSC20202 | -0.0514 | – | – |
| CG10646 | DRSC09764 | 0.812 | – | – |
| CG7264 | DRSC10793 | -0.43 | 1.19 | – |
| CG14610 + asRNA:CR42738 | DRSC12554 | -1.63 | -1.41 | – |
| mbo | DRSC16123 | 0.96 | 0.996 | – |
| Shab | DRSC08013 | 1.44 | 2.82 | – |
| Shab | DRSC08643 | 0.314 | -0.0709 | – |
| Shab | DRSC08699 | 0.115 | -1.82 | – |
| CG10029 | DRSC12498 | 0.692 | 0.366 | – |
| Acbp4 | DRSC11023 | 1.05 | -1.48 | – |
| CG14443 | DRSC17936 | 2.25 | 0.983 | – |
| CG17571 | DRSC01768 | 1.04 | 0.373 | – |
| CG17571 | DRSC03755 | -0.487 | -0.649 | – |
| Rsph4a | DRSC04338 | 1.93 | 1.87 | – |
| Vm26Ac | DRSC02329 | -0.581 | -0.00911 | – |
| CG8468 | DRSC07190 | 1.52 | 0.0652 | – |
| CG12093 | DRSC08252 | -0.132 | -0.843 | – |
| Hph | DRSC12164 | -1.24 | 1.19 | – |
| Hph | DRSC12251 | -0.732 | 1.05 | – |
| CG8736 | DRSC07255 | 1.23 | 0.0772 | – |
| Ppcs | DRSC14127 | 0.507 | -0.677 | – |
| CR33317 | DRSC02653 | 0.112 | -1.12 | – |
| CG15344 (retired record) | DRSC18029 | -0.952 | 0.46 | – |
| CG7126 | DRSC16201 | -0.161 | 1.9 | – |
| polyph | DRSC06254 | -1.63 | -1.16 | – |
| Hr78 | DRSC11866 | 0.175 | -0.0147 | 0.987 |
| GatA | DRSC16956 | -0.394 | 5.15 | – |
| Rap1 | DRSC08686 | 0.0593 | 0.568 | – |
| DnaJ-1 | DRSC11145 | -0.544 | 0.211 | – |
| Cyp6d5 | DRSC16634 | -5.07 | 5.26 | – |
| Ice2 | DRSC14268 | -0.00947 | 4.33 | – |
| CG43736 + CG33692 (retired record) | DRSC18370 | -0.785 | -0.654 | – |
| CG43736 + CG33692 (retired record) | DRSC18371 | 0.36 | 1.5 | – |
| CG32428 | DRSC11697 | -0.378 | 1.61 | 0.498 |
| CG32428 | DRSC11768 | -0.11 | -0.16 | – |
| CSN4 | DRSC07350 | -1.15 | -3.11 | – |
| Gbp3 | DRSC15206 | -0.853 | 0.002 | – |
| c(2)M | DRSC01922 | -1.88 | 1.36 | – |
| blot | DRSC09485 | 0.0334 | 1.57 | – |
| blot | DRSC11328 | 0.257 | -0.763 | 0.343 |
| Afg3l2 | DRSC10657 | 0.084 | 1.43 | 2.25 |
| CR31958 | DRSC00282 | -0.746 | -0.348 | – |
| CR31958 | DRSC21858 | 1.43 | 2.33 | – |
| SLC22A | DRSC11826 | -0.251 | -1.73 | – |
| SLC22A | DRSC11827 | -0.724 | 0.00375 | – |
| Hen1 | DRSC06139 | -3.86 | -0.24 | – |
| Hen1 | DRSC06140 | 0.342 | -2.73 | – |
| Tmem63 | DRSC06063 | -0.0844 | -0.907 | – |
| CG32628 (retired record) | DRSC19405 | -0.0774 | 0.107 | -1.27 |
| CG8132 | DRSC16383 | -0.109 | -1.34 | – |
| APC10 | DRSC06071 | 1.18 | -1.62 | – |
| aft | DRSC07576 | 0.661 | 0.0224 | – |
| CG2269 | DRSC06833 | -0.533 | 0.131 | – |
| kat-60L1 | DRSC12184 | -0.653 | -0.6 | – |
| TwdlG | DRSC12229 | 0.318 | 0.0577 | – |
| nesd | DRSC02099 | 0.00863 | 0.503 | – |
| CG15739 | DRSC19705 | 1.2 | -0.0696 | 1.14 |
| cutlet | DRSC00284 | 0.574 | -0.218 | 1.39 |
| CG4375 | DRSC00653 | 0.972 | -1.72 | – |
| Ada | DRSC14463 | 1.99 | 1.55 | – |
| CG13984 | DRSC02316 | -0.076 | 3.62 | – |
| Orc4 | DRSC04634 | -2.58 | -0.758 | – |
| MED10 | DRSC10474 | -0.00065 | 0.239 | – |
| Mes2 | DRSC11593 | 1.21 | 1.57 | – |
| Mes2 | DRSC11632 | 2.23 | 3.86 | -0.22 |
| CG2247 | DRSC19844 | -0.591 | 0.439 | -2.43 |
| CG15651 | DRSC04242 | 1.72 | -0.0535 | – |
| CG13739 | DRSC06410 | 2.72 | 2.09 | – |
| CG13739 | DRSC23200 | -0.0318 | -0.649 | – |
| CG13891 | DRSC08361 | 0.206 | 0.747 | – |
| thr | DRSC07706 | 3.96 | 5.85 | – |
| CG13003 | DRSC19522 | – | 0.965 | – |
| Ir7g | DRSC18008 | 1.41 | 0.345 | – |
| CG5567 | DRSC10517 | 0.129 | 1.76 | -1.02 |
| yellow-e3 | DRSC15170 | -2.16 | -0.114 | – |
| Sgs5 | DRSC16862 | -0.439 | 0.574 | – |
| CG32756 | DRSC22505 | -0.00865 | 0.654 | – |
| CG32756 | DRSC23271 | 0.718 | -0.407 | – |
| CG10000 | DRSC14170 | -0.865 | 1.13 | – |
| GM130 | DRSC04617 | 0.871 | -0.099 | – |
| CG12288 | DRSC02155 | -0.203 | 0.882 | – |
| CG14314 | DRSC14793 | -0.596 | 0.736 | – |
| RYa-R | DRSC16757 | 0.217 | – | – |
| CG31633 | DRSC02275 | -0.0573 | 0.117 | – |
| CG32816 | DRSC17337 | -0.449 | -1.54 | – |
| CG34178 + CG34177 | DRSC00351 | 1.06 | -1.66 | – |
| Ublcp1 | DRSC14149 | -0.242 | 1.26 | – |
| CG4119 | DRSC17741 | 0.465 | -0.3 | -0.377 |
| SuUR | DRSC11292 | 0.311 | -0.419 | – |
| Alg9 | DRSC14407 | -0.6 | -1.26 | – |
| CG7394 | DRSC10835 | 1.25 | 1.11 | – |
| mute | DRSC06562 | 1.29 | -2.03 | – |
| mute | DRSC22931 | -0.03 | 0.842 | – |
| TTLL4B | DRSC00636 | -0.639 | -1.53 | – |
| Tab2 | DRSC07481 | -1.13 | -0.089 | – |
| Gprk1 | DRSC20732 | -0.0925 | -0.511 | – |
| Gprk1 | DRSC20916 | -0.181 | -2.27 | – |
| CPT2 | DRSC08553 | 0.121 | -1.62 | – |
| CG9706 | DRSC11095 | -0.502 | 0.848 | 1.32 |
| DNAlig4 | DRSC19436 | 0.744 | 0.554 | 3.14 |
| Cp16 | DRSC11119 | -0.00422 | -0.386 | – |
| Tim13 | DRSC09848 | 0.912 | 0.705 | – |
